For some of these results: For expression read-outs the peptide stands for its source gene, whose mRNA was measured; the gene is not named for every peptide.
How the values were obtained:
Set-up in all cases: species or system human
[1] = test system: source genes of selected peptides; experiment: Target coverage of source genes in tumor entities based on TCGA Research Network data; settings: over-expressed = more than 2-fold above the highest 75% percentile of normal organs; for Target coverage, over-expression category of source gene, KIRP (N = 291): Kidney renal papillary cell carcinoma; for Target coverage, over-expression category of source gene, BLCA (N = 408): Bladder urothelial carcinoma; for Target coverage, over-expression category of source gene, CESC (N = 307): Cervical squamous cell carcinoma and endocervical adenocarcinoma; for Target coverage, over-expression category of source gene, DLBC (N = 48): Lymphoid neoplasm diffuse large B-cell lymphoma
[2] = test system: source genes of selected peptides; experiment: Expression profiling of source genes by in-house RNAseq, tumor vs normal tissues (target coverage); settings: for Target coverage, over-expression of source gene, AML: AML (N = 7); for Target coverage, over-expression of source gene, AML / Target coverage, over-expression of source gene, BRCA / Target coverage, over-expression of source gene, CLL / Target coverage, over-expression of source gene, CRC / Target coverage, over-expression of source gene, GB / Target coverage, over-expression of source gene, HCC / Target coverage, over-expression of source gene, OC / Target coverage, over-expression of source gene, OSCAR / Target coverage, over-expression of source gene, PC / Target coverage, over-expression of source gene, RCC / Target coverage, over-expression of source gene, SCLC / Target coverage, over-expression of source gene, pNSCLC: share of tumors with more than 1.5-fold higher expression than highest relevant normal tissue, in-house RNASeq; for Target coverage, over-expression of source gene, BRCA: BRCA (N = 10); for Target coverage, over-expression of source gene, CLL: CLL (N = 10); for Target coverage, over-expression of source gene, CRC: CRC (N = 20); for Target coverage, over-expression of source gene, GB: GB (N = 24); for Target coverage, over-expression of source gene, HCC: HCC (N = 15); for Target coverage, over-expression of source gene, OC: OC (N = 12); for Target coverage, over-expression of source gene, OSCAR: OSCAR (N = 11); for Target coverage, over-expression of source gene, PC: PC (N = 26); for Target coverage, over-expression of source gene, RCC: RCC (N = 10); for Target coverage, over-expression of source gene, SCLC: SCLC (N = 10); for Target coverage, over-expression of source gene, pNSCLC: pNSCLC (N = 11)
[3] = test system: HLA-A*24 molecules of primary tumors; experiment: Identification and relative LC-MS quantitation of HLA-A*24 tumor-associated peptides presented on tissue samples (XPRESIDENT presentation profiles); settings: for Peptide Presentation on cancer entities: Table 9B: selected HLA-A*24 peptides, presentation on additional cancer entities

Row | Substance | Target coverage, over-expression category of source gene, KIRP (N = 291) [1] | Target coverage, over-expression of source gene, AML [2] | Target coverage, over-expression of source gene, BRCA [2] | Target coverage, over-expression of source gene, CLL [2] | Target coverage, over-expression of source gene, CRC [2] | Target coverage, over-expression of source gene, GB [2] | Target coverage, over-expression of source gene, HCC [2] | Target coverage, over-expression of source gene, OC [2] | Target coverage, over-expression of source gene, OSCAR [2] | Target coverage, over-expression of source gene, PC [2] | Target coverage, over-expression of source gene, RCC [2] | Target coverage, over-expression of source gene, SCLC [2] | Target coverage, over-expression of source gene, pNSCLC [2] | Peptide Presentation on cancer entities [3] | Target coverage, over-expression category of source gene, BLCA (N = 408) [1] | Target coverage, over-expression category of source gene, CESC (N = 307) [1] | Target coverage, over-expression category of source gene, DLBC (N = 48) [1] | also measured
1 | 258: peptide found in PKD2L1 (gene looked up) (AYAQLGYLL; listed as Homo sapiens) [compound 258] | C (>=5% of tumors above the cutoff, but <20%) | I (<19% over-expression = I) | I (<19% over-expression = I) | I (<19% over-expression = I) | I (<19% over-expression = I) | I (<19% over-expression = I) | I (<19% over-expression = I) | I (<19% over-expression = I) | I (<19% over-expression = I) | I (<19% over-expression = I) | I (<19% over-expression = I) | II (20-49% = II) | I (<19% over-expression = I) | NSCLC | – | – | – | –
2 | 218: peptide found in CYP24A1 (gene looked up) (LYSELNKWSF; listed as Homo sapiens) [compound 218] | C (>=5% of tumors above the cutoff, but <20%) | I (<19% over-expression = I) | I (<19% over-expression = I) | I (<19% over-expression = I) | I (<19% over-expression = I) | I (<19% over-expression = I) | I (<19% over-expression = I) | I (<19% over-expression = I) | I (<19% over-expression = I) | I (<19% over-expression = I) | I (<19% over-expression = I) | I (<19% over-expression = I) | II (20-49% = II) | NSCLC | C (>=5% of tumors above the cutoff, but <20%) | – | – | –
3 | 219: peptide found in CYP4Z1 (gene looked up) (SYLKAVFNL; listed as Homo sapiens) [compound 219] | – | I (<19% over-expression = I) | III (50-69% = III) | I (<19% over-expression = I) | I (<19% over-expression = I) | I (<19% over-expression = I) | I (<19% over-expression = I) | I (<19% over-expression = I) | I (<19% over-expression = I) | I (<19% over-expression = I) | I (<19% over-expression = I) | I (<19% over-expression = I) | I (<19% over-expression = I) | NSCLC | C (>=5% of tumors above the cutoff, but <20%) | C (>=5% of tumors above the cutoff, but <20%) | – | –
4 | 128: peptide found in PLA2G7 (gene looked up) (VYPFDWQYI; listed as Homo sapiens) [compound 128] | – | – | – | – | – | – | – | – | – | – | – | – | – | – | – | – | C (>=5% of tumors above the cutoff, but <20%) | Target coverage for source genes of selected peptides, GBC_CCC (N = 10) ([2]; gallbladder adenocarcinoma and cholangiocarcinoma, share of tumors with more than 1.5-fold higher expression than the highest-expressing relevant normal tissue, in-house RNAseq): I (<19% over-expression = I); Target coverage for source genes of selected peptides, GC (N = 11) ([2]; gastric cancer, share of tumors with more than 1.5-fold higher expression than the highest-expressing relevant normal tissue, in-house RNAseq): I (<19% over-expression = I); Target coverage for source genes of selected peptides, HNSCC (N = 10) ([2]; head and neck small cell carcinoma, share of tumors with more than 1.5-fold higher expression than the highest-expressing relevant normal tissue, in-house RNAseq): I (<19% over-expression = I); Target coverage for source genes of selected peptides, MEL (N = 10) ([2]; melanoma, share of tumors with more than 1.5-fold higher expression than the highest-expressing relevant normal tissue, in-house RNAseq): I (<19% over-expression = I); Target coverage for source genes of selected peptides, NHL (N = 10) ([2]; non-Hodgkin lymphoma, share of tumors with more than 1.5-fold higher expression than the highest-expressing relevant normal tissue, in-house RNAseq): I (<19% over-expression = I); Target coverage for source genes of selected peptides, PCA (n = 10) ([2]; prostate cancer and benign prostate hyperplasia, share of tumors with more than 1.5-fold higher expression than the highest-expressing relevant normal tissue, in-house RNAseq): I (<19% over-expression = I); Target coverage for source genes of selected peptides, UBC (N = 10) ([2]; urinary bladder cancer, share of tumors with more than 1.5-fold higher expression than the highest-expressing relevant normal tissue, in-house RNAseq): I (<19% over-expression = I); Target coverage for source genes of selected peptides, UTC (N = 10) ([2]; uterine cancer, share of tumors with more than 1.5-fold higher expression than the highest-expressing relevant normal tissue, in-house RNAseq): I (<19% over-expression = I); ENTITIES ([3]; Table 9A: selected HLA-A*24-binding tumor-associated peptides, cancer entities on which the peptide was found presented): GB, PCA, HCC, NSCLC, GC
5 | 372: peptide found in NUP210 (gene looked up) (VYVIEPHSMEF; listed as Homo sapiens) [compound 372] | – | I (<19% over-expression = I) | I (<19% over-expression = I) | II (20-49% = II) | I (<19% over-expression = I) | I (<19% over-expression = I) | I (<19% over-expression = I) | I (<19% over-expression = I) | I (<19% over-expression = I) | I (<19% over-expression = I) | I (<19% over-expression = I) | II (20-49% = II) | I (<19% over-expression = I) | NSCLC | B (>=20% of tumors above the cutoff, but <50%) | A (>=50% of tumors above the cutoff) | A (>=50% of tumors above the cutoff) | Target coverage, over-expression category of source gene, CHOL (N = 36) ([1]; Cholangiocarcinoma): C (>=5% of tumors above the cutoff, but <20%); Target coverage, over-expression category of source gene, HNSC (N = 521) ([1]; Head and neck squamous cell carcinoma): C (>=5% of tumors above the cutoff, but <20%); Target coverage, over-expression category of source gene, MESO (N = 87) ([1]; Mesothelioma): C (>=5% of tumors above the cutoff, but <20%)
